From patent US11554373B2 (priority 2016, dated 2023)
Where a name gives a salt, the structure may show the parent alone.

Tests used:
[1] = system: primary human hepatocytes; details: 50 uM amiodarone; in the presence of THP-1 cells; day 7
[2] = system: primary human hepatocytes; assay: Albumin production by hepatocytes (ELISA); format: cell-based; details: 50 uM amiodarone
[3] = system: primary human hepatocytes; assay: Urea production by hepatocytes; format: cell-based; details: 50 uM amiodarone; time course of the experiment

CCCCc1oc2ccccc2c1C(=O)c1cc(I)c(OCCN(CC)CC)c(I)c1 [amiodarone, Amiodarone hydrochloride]
liver viability [1]: significantly reduces
albumin production ([2]; days 5 and 7): negatively affected
albumin production effect with addition of THP-1 cells ([2]; with THP-1 cells): more pronounced
urea production [3]: unaffected
